By UniProt entry, the sequences of proteins in these tests, tags left out. Where a name states a change or a piece, a line headed by the entry shows the natural chain unless it says otherwise.
UniProt Q02248: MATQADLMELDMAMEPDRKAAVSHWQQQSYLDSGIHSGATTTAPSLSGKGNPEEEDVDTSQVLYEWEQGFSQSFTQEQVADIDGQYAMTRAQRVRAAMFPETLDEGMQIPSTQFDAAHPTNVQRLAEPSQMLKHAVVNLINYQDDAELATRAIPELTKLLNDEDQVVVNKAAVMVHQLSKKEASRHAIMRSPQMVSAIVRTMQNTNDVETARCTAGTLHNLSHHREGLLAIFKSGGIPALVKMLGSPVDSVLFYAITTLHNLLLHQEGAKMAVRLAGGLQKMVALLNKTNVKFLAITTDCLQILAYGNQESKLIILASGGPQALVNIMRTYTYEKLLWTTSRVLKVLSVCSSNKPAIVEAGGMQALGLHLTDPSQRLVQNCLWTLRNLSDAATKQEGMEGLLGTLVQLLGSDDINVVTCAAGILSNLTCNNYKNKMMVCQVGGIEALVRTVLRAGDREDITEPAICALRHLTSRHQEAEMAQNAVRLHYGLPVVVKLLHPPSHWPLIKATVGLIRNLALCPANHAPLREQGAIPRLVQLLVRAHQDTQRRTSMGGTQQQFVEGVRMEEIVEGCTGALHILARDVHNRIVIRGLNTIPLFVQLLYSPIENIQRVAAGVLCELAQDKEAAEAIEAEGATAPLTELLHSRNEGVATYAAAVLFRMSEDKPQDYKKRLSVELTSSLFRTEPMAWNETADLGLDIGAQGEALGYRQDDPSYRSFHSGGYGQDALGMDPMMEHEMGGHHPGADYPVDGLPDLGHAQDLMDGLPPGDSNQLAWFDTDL
UniProt P18760: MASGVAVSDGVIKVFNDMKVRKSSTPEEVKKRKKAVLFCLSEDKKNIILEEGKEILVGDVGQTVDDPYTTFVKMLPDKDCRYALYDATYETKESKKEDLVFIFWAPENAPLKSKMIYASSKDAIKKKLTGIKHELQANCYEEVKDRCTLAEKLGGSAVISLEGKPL

According to paper PMC11980659:

Target: β-catenin (endogenous, β-catenin^Δ(ex3)/+ MEFs) (mouse (endogenous in MEFs)) (UniProt Q02248)
Assay: co-IP; endogenous proteins in β-catenin^Δ(ex3)/+ MEFs

binding: binds
Substance: Cofilin 1 (endogenous, β-catenin^Δ(ex3)/+ MEFs) (from UniProt P18760 1-166)

No constants are given. Whether binding was seen depends on the method and setting. In cells and extracts the contact can be indirect. Binding calls can cover weak binding; strength is not graded here.
